Test results as given in PubChem BioAssay AID540276 (National Center for Advancing Translational Sciences (NCATS), 2011).
The campaign covered roughly 300,000 compounds. About 5,400 (1.8%) were called active. The inconclusive results got no clear call from the source; some entries with a clear call stand among them for comparison. Calls come from the whole dose curve; tested in HEK293 cells. A potency beside an inconclusive call is a rough fit, not a confirmed value.

Assay: qHTS for inhibitors of binding or entry into cells for Marburg Virus
Settings: Marburg virus pseudotyped entry inhibition, cell reporter; series mostly up to 37.8 µM
Potency is the fitted concentration of half-maximal effect.

Row | SMILES | Potency
1 | Cc1cc(-n2c(SCC(=O)NCc3cccs3)nc3n[nH]c(C)c3c2=N)ccc1Cl | inconclusive: 5.8 µM [inhibitor, single point]
2 | COc1cc(CCC(=O)OCC(=O)Nc2ccccc2C(C)C)cc(OC)c1OC | inconclusive: 17.8 µM [activator, partial curve, poor fit]
3 | O=C(CCCc1ccccc1)Nc1cccc(C(=O)O)c1 | active: 2.51 µM
4 | O=C(NCCc1ccc(Cl)cc1)c1cnccn1 | inconclusive: 20 µM [activator, single point]
5 | O=C(Cn1c(=O)c2cc(Cl)ccc2n2nncc12)Nc1ccccc1 | inactive
6 | Cc1ccc(-n2c(C)cc(C(=O)OCC(=O)N(C)C3CCS(=O)(=O)C3)c2C)cc1 (configuration not stated) | inconclusive: 1.26 µM [inhibitor, single point]
7 | CCOc1ccccc1C(=O)N1CC(=O)Nc2ccc(Cl)cc2C1c1ccccc1 (configuration not stated) | inactive
8 | CC(=O)c1ccccc1NC(=O)CCCNC(=O)c1ccc(Cl)cc1 | inactive
9 | Cc1ccc([N+](=O)[O-])cc1NC(=O)c1ccccc1 | inactive
10 | COC(=O)c1ccc(C(=O)NC(=S)Nc2nc3c(s2)CCCC3)cc1 | inconclusive: 0.112 µM [activator, full curve, poor fit]
11 | Cc1cccc(OCC(=O)N2CCN(C(=O)c3ccc([N+](=O)[O-])cc3)CC2)c1 | inactive
12 | COC(=O)c1ccc(CSc2nnc(Nc3ccccc3OC)s2)o1 | inconclusive: 9.2 µM [inhibitor, partial curve, poor fit]
13 | CC(C)n1c(C(F)(F)F)nc2cc(C(=O)N3CCC(O)CC3)ccc21 | inconclusive: 35.5 µM [activator, single point]
14 | O=C(NCc1ccc(-c2nc3ccccc3s2)cc1)c1ccco1 | inconclusive: 0.366 µM [activator, full curve, poor fit]
15 | O=C(NC1CC1)C1C2C3C4CC5C3C5C4C12 (configuration not stated) | inactive
16 | CCOc1ccc(N2C(=O)CC(SC(=NC)Nc3ccc4c(c3)OCO4)C2=O)cc1 (configuration not stated) | inconclusive: 5.62 µM [inhibitor, single point]
17 | CCc1ccc(NC(=O)c2sc3nc(C)c(Cl)c(C)c3c2N)cc1 | inconclusive: 1.12 µM [activator, full curve, poor fit]
18 | COc1ccc(/C=N\NC(=O)c2sc(N)nc2C)cc1OC | inconclusive: 12.6 µM [inhibitor, partial curve, poor fit]
19 | Cc1ccc2cc(CN(Cc3cccs3)Cc3nnnn3CC3CCCO3)c(=O)[nH]c2c1C (configuration not stated) | inconclusive: 23.1 µM [inhibitor, single point]
20 | O=C(COc1ncnc2scc(-c3ccc(Cl)cc3)c12)NCc1ccco1 | inconclusive: 1.41 µM [inhibitor, partial curve, poor fit]
21 | COc1cc(/C=N/O)cc(Br)c1OS(=O)(=O)c1ccc(C)cc1 | inconclusive: 35.5 µM [inhibitor, single point]
22 | Cc1nn(C(C)C(=O)N2CCOCC2)c(C)c1[N+](=O)[O-] (configuration not stated) | inconclusive: 20 µM [activator, single point]
23 | CC(=O)c1ccc(OCC(=O)N(CCC2=CCCCC2)c2c(N)n(Cc3ccccc3)c(=O)[nH]c2=O)cc1 | inconclusive: 11.2 µM [inhibitor, partial curve, poor fit]
24 | O=C(O)CN1C2=NCCCN2c2ccccc21 | inactive

Row | SMILES | Potency
25 | CC(C)(C)c1ccc(OCCn2ccccc2=O)cc1 | inconclusive: 2.59 µM [activator, full curve, poor fit]
26 | CCCCCCCC1=Cc2ccc(F)cc2C(C(C(=O)OC)C(=O)OC)N1C(=O)OC (configuration not stated) | inconclusive: 0.0008 µM [activator]
27 | CN(C)S(=O)(=O)c1cccc(-c2nnc(SCc3cc(Cl)cc4c3OCOC4)n2N)c1 | inactive
28 | Cc1cccc2nc(CSc3nnnn3-c3ccccc3)cn12 | inconclusive: 29.1 µM [inhibitor, single point]
29 | Clc1ccc(CN2CCC(Cc3ccccc3)CC2)cc1 | inconclusive: 25.1 µM [inhibitor, single point]
30 | COc1ccc(C(=O)CCc2nc3ccccc3s2)cc1 | inactive
31 | O=C(O)c1cccc(S(=O)(=O)N2CCCC2)c1 | inactive
32 | CCc1ccccc1NC(=O)c1ccc(-n2c(C)ccc2C)cc1 | inconclusive: 11.2 µM [inhibitor, partial curve]
33 | COc1ccc2nc(-c3ccc(N)cc3)[nH]c2c1 | inconclusive: 22.4 µM [inhibitor, single point]
34 | Cc1nnc(NC(=O)CSc2ccccn2)s1 | inconclusive: 1.64 µM [activator, partial curve, poor fit]
35 | CCOCC(=O)Nc1nc2ccc(S(C)(=O)=O)cc2s1 | inactive
36 | CN(CCc1cnn(C)c1)Cc1cn[nH]c1-c1ccc(-c2ccccc2)cc1 | inconclusive: 0.631 µM [inhibitor, full curve, poor fit]
37 | Cc1ccccc1Nc1nc(N)nc(-c2oc3ccccc3c2C)n1 | inconclusive: 35.5 µM [inhibitor, single point]
38 | CNC(=O)c1c(C)nc(SCC(=O)NCc2ccc(OC)cc2)c(C#N)c1-c1ccco1 | inconclusive: 5.8 µM [inhibitor, partial curve, poor fit]
39 | Cc1cc(N2CCOCC2)nc2ccccc12 | inactive
40 | Cc1cccn2c(=O)c(C=O)c(Cl)nc12 | inconclusive: 25.1 µM [inhibitor, single point]
41 | CCCNC(=O)c1n[nH]c(=O)c2ccccc12 | inactive
42 | O=C(COc1ccccc1)NCC(=O)Nc1cccc(S(=O)(=O)NC2=NCCC2)c1 | inconclusive: 11.2 µM [activator, partial curve]
43 | COc1ccc(-c2cc(C(F)F)n3ncc(C(=O)N4CCN5CCCC5C4)c3n2)cc1 (configuration not stated) | inconclusive: 9.2 µM [inhibitor, partial curve]
44 | O=C(Cn1nnc2ccccc2c1=O)NC1CCCc2ccccc21 (configuration not stated) | inactive
45 | O=C1CC(N2CCC(c3nc4ccccc4[nH]3)CC2)C(=O)N1c1cccc(F)c1 (configuration not stated) | inconclusive: 2.51 µM [activator, partial curve, poor fit]
46 | CC(C)(C)n1nnnc1C(c1cc2cc3c(cc2[nH]c1=O)OCCO3)N1CCSCC1 (configuration not stated) | inconclusive: 8.2 µM [inhibitor, partial curve]
47 | Cc1cc(NC(=O)CCOc2ccc(F)cc2)no1 | inconclusive: 2.24 µM [inhibitor, partial curve, poor fit]
48 | O=C1ON=C(c2ccccc2)/C1=C/c1ccco1 | inactive

Reprinted at random: 3 compounds from above
Row | SMILES | Potency
38 | CNC(=O)c1c(C)nc(SCC(=O)NCc2ccc(OC)cc2)c(C#N)c1-c1ccco1 | inconclusive: 5.8 µM [inhibitor, partial curve, poor fit]
31 | O=C(O)c1cccc(S(=O)(=O)N2CCCC2)c1 | inactive
29 | Clc1ccc(CN2CCC(Cc3ccccc3)CC2)cc1 | inconclusive: 25.1 µM [inhibitor, single point]

Reformatted: 2 of the compounds above.
O=C(CCCc1ccccc1)Nc1cccc(C(=O)O)c1
  Potency: active: 2.51 µM
Cc1cc(N2CCOCC2)nc2ccccc12
  Potency: inactive

(cont.)

Row | SMILES | Potency
49 | COc1cc2ncnc(NCc3ccc(C)cc3)c2cc1OC | inconclusive: 2.51 µM [activator, full curve, poor fit]
50 | CC=Cc1cc2c(c(=O)o1)C(=O)C(O)C(C)O2 (configuration not stated) | inconclusive: 10 µM [inhibitor, partial curve, poor fit]
51 | Cc1cccc(C)c1NC(=S)N1CCCN(Cc2ccc(F)cc2)C1 | inconclusive: 11.2 µM [inhibitor, partial curve, poor fit]
52 | CC(C)OCCCn1c(=O)c2ccccc2n2c(CCC(=O)O)nnc12 | inactive
53 | O=C(CSc1nccc(=O)[nH]1)c1ccco1 | inactive
54 | CC(=O)C1=C(O)C(=O)N(c2cccc(C(=O)O)c2)C1c1ccccc1F (configuration not stated) | inconclusive: 3.98 µM [activator, full curve, poor fit]
55 | COCCNC(=O)NC12CC3(C)CC(C)(CC(C)(C3)C1)C2 | inconclusive: 11.2 µM [inhibitor, partial curve, poor fit]
56 | CN(C)CC(O)CN(c1ccccc1)c1ccccc1 (configuration not stated) | inconclusive: 15.8 µM [inhibitor, single point]
57 | CCCOc1ccc(-c2nnn(CC(=O)Nc3cccc(C(=O)OC)c3)n2)cc1 | inconclusive: 0.891 µM [activator, partial curve, poor fit]
58 | CC(=O)Nc1ccc2c(O)cc(S(=O)(=O)O)cc2c1 | inconclusive: 35.5 µM [activator, single point]
59 | Cc1cc(NC(=O)/C=C/C(=O)N(CC(=O)NC2CCCC2)c2cccc3ccccc23)no1 | inactive
60 | O=C(CSc1ccccc1)N/N=C/c1ccccc1O | inconclusive: 35.5 µM [inhibitor, single point]
61 | Cc1cc(C)n2nc(C(=O)Nc3ccc4c(c3)CCC4)nc2n1 | inactive
62 | CON1C(=O)C(=O)N(OC)C(C)(C)C1C (configuration not stated) | inactive
63 | COc1ccc(NC(=O)/C(C#N)=C\C=C\c2ccco2)cc1 | inconclusive: 2.51 µM [inhibitor, partial curve, poor fit]
64 | CCC(C(=O)NC1CCCC1)N(C(=O)Cn1nnc(-c2ccc(OC)c(OC)c2)n1)c1cccc(O)c1 (configuration not stated) | inconclusive: 12.6 µM [inhibitor, partial curve, poor fit]
65 | Cc1cc(=O)[nH]c(SCC(=O)Nc2ccc(C)c(S(=O)(=O)N3CCCCC3)c2)n1 | inactive
66 | O=C(CSc1ccc2c(c1)OCCO2)NC(=O)Cc1ccccc1 | inconclusive: 0.1 µM [activator, full curve, poor fit]
67 | Cc1cc(CNC(=O)c2cc(COc3ccc(F)c(F)c3)on2)nn1C | inactive
68 | CNC(=O)CN(c1ccc(Oc2ccccc2)cc1)S(=O)(=O)c1ccc(C)cc1 | inactive
69 | CCC1=Nc2cc(C(=O)NCc3ccco3)ccc2Sc2ccccc21 | inactive
70 | N=C1S/C(=C\c2ccccc2F)C(=O)N1c1ccc(F)cc1 | inactive
71 | COc1ccc(/C=C2\SC(=S)N(CC(=O)NCCO)C2=O)cc1 | inactive
72 | Cc1cccc([C@@H]2CN(C)CCc3c2cc(O)c(O)c3Cl)c1 | inconclusive: 16.4 µM [inhibitor, single point]

Laid out differently: two of the compounds above.
Row	SMILES	Potency
67	Cc1cc(CNC(=O)c2cc(COc3ccc(F)c(F)c3)on2)nn1C	inactive
68	CNC(=O)CN(c1ccc(Oc2ccccc2)cc1)S(=O)(=O)c1ccc(C)cc1	inactive
